Measured data: PubChem BioAssay AID1259308 (NCATS, 2017)
Purpose: 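Candidate targets for better recombinant protein yield in mammalian cells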 (primary screen). System: human HEK293 embryonic kidney cells stably expressing firefly luciferase (HEK-CMV-Luc2-Hygro). Knock-down reagent: single siRNA against human genes, 0.8 pmol siRNA per well. Time to read-out: 72 h. Read-out: 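Luciferase light (ONE-Glo) measured on one replicate plate set and viability (CellTiter-Glo) on the other, scaled to a negative control siRNA, with robust z-scores and luciferase per cell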. Direction: total luciferase, z-score: higher = more reporter protein produced. Hit rule: 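Active when the median/MAD z-score for overall luciferase is greater than 3; a gene was taken forward for validation with new siRNAs if at least two of its three siRNAs passed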. Meaning of the calls: active = raised luciferase; inactive = no rise.
In all, the deposit lists about 59,000 reagents; this is an unselected part. Of all reagents, about 1,510 (2.6%) were called active. 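Calls use total luciferase alone and ignore viability, so some active siRNAs may act by altering cell number.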 The numbers tell different reagents against one gene apart. Further read-outs or replicates are left out here. No sequences are given here.

gene | reagent | total luciferase, z-score | Outcome
PTPDC1 (GeneID 138639) | 1 | -0.569 | inactive
PTPDC1 (GeneID 138639) | 2 | -0.399 | inactive
PTPDC1 (GeneID 138639) | 3 | -0.195 | inactive
ABCC2 (GeneID 1244) | 1 | 0.26 | inactive
ABCC2 (GeneID 1244) | 2 | 0.217 | inactive
ABCC2 (GeneID 1244) | 3 | -1.01 | inactive
BNIP3L (GeneID 665) | 1 | 1.09 | inactive
BNIP3L (GeneID 665) | 2 | 0.218 | inactive
BNIP3L (GeneID 665) | 3 | -0.542 | inactive
BPGM (GeneID 669) | 1 | -1.05 | inactive
BPGM (GeneID 669) | 2 | -1.3 | inactive
BPGM (GeneID 669) | 3 | -0.677 | inactive
DKK4 (GeneID 27121) | 1 | -0.308 | inactive
DKK4 (GeneID 27121) | 2 | -0.261 | inactive
DKK4 (GeneID 27121) | 3 | -0.873 | inactive
MRPL45 (GeneID 84311) | 1 | 0.213 | inactive
MRPL45 (GeneID 84311) | 2 | 0.403 | inactive
MRPL45 (GeneID 84311) | 3 | -1.72 | inactive
FGF10 (GeneID 2255) | 1 | 1.13 | inactive
FGF10 (GeneID 2255) | 2 | -0.952 | inactive
FGF10 (GeneID 2255) | 3 | -0.978 | inactive
ZSCAN2 (GeneID 54993) | 1 | 1.47 | inactive
ZSCAN2 (GeneID 54993) | 2 | 2.94 | inactive
ZSCAN2 (GeneID 54993) | 3 | -0.416 | inactive
GPR37L1 (GeneID 9283) | 1 | -0.193 | inactive
GPR37L1 (GeneID 9283) | 2 | -0.535 | inactive
GPR37L1 (GeneID 9283) | 3 | 0.21 | inactive
GTPBP1 (GeneID 9567) | 1 | -0.436 | inactive
GTPBP1 (GeneID 9567) | 2 | 0.897 | inactive
GTPBP1 (GeneID 9567) | 3 | 0.506 | inactive
LONP2 (GeneID 83752) | 1 | -0.219 | inactive
LONP2 (GeneID 83752) | 2 | 0.347 | inactive
LONP2 (GeneID 83752) | 3 | 0.741 | inactive
HYCC2 (GeneID 285172) | 1 | 0.498 | inactive
HYCC2 (GeneID 285172) | 2 | -0.531 | inactive
HYCC2 (GeneID 285172) | 3 | 0.0409 | inactive
F13B (GeneID 2165) | 1 | -0.451 | inactive
F13B (GeneID 2165) | 2 | -0.254 | inactive
F13B (GeneID 2165) | 3 | 0.245 | inactive
SNRNP40 (GeneID 9410) | 1 | -1.71 | inactive
SNRNP40 (GeneID 9410) | 2 | -0.802 | inactive
SNRNP40 (GeneID 9410) | 3 | -1.66 | inactive
IL18R1 (GeneID 8809) | 1 | 0.0353 | inactive
IL18R1 (GeneID 8809) | 2 | -0.589 | inactive
IL18R1 (GeneID 8809) | 3 | 0.269 | inactive
MCHR2 (GeneID 84539) | 1 | 0.311 | inactive
MCHR2 (GeneID 84539) | 2 | 1.6 | inactive
MCHR2 (GeneID 84539) | 3 | -1.72 | inactive
NDRG1 (GeneID 10397) | 1 | -0.767 | inactive
NDRG1 (GeneID 10397) | 2 | -1.2 | inactive
NDRG1 (GeneID 10397) | 3 | 0.0195 | inactive
COQ4 (GeneID 51117) | 1 | -0.36 | inactive
COQ4 (GeneID 51117) | 2 | 1.07 | inactive
COQ4 (GeneID 51117) | 3 | -0.644 | inactive
PPP2R5C (GeneID 5527) | 1 | 2.52 | inactive
PPP2R5C (GeneID 5527) | 2 | -0.00636 | inactive
PPP2R5C (GeneID 5527) | 3 | 1.21 | inactive
CADM4 (GeneID 199731) | 1 | -1.1 | inactive
CADM4 (GeneID 199731) | 2 | -0.851 | inactive
CADM4 (GeneID 199731) | 3 | -0.941 | inactive
FLOT1 (GeneID 10211) | 1 | -2.23 | inactive
FLOT1 (GeneID 10211) | 2 | -0.0456 | inactive
FLOT1 (GeneID 10211) | 3 | -0.715 | inactive
RAB3IP (GeneID 117177) | 1 | 0.822 | inactive
RAB3IP (GeneID 117177) | 2 | -0.173 | inactive
RAB3IP (GeneID 117177) | 3 | 2.77 | inactive
C1GALT1C1L (GeneID 728819) | 1 | -0.0679 | inactive
C1GALT1C1L (GeneID 728819) | 2 | -0.203 | inactive
C1GALT1C1L (GeneID 728819) | 3 | -1.25 | inactive
ANLN (GeneID 54443) | 1 | 2.18 | inactive
ANLN (GeneID 54443) | 2 | 3.41 | active
ANLN (GeneID 54443) | 3 | -0.0898 | inactive
FBXO46 (GeneID 23403) | 1 | -2.02 | inactive
FBXO46 (GeneID 23403) | 2 | 1.21 | inactive
FBXO46 (GeneID 23403) | 3 | -0.53 | inactive

A run of entries from the list above, for reference:
gene | reagent | total luciferase, z-score | Outcome
FLOT1 (GeneID 10211) | 1 | -2.23 | inactive
FLOT1 (GeneID 10211) | 2 | -0.0456 | inactive
FLOT1 (GeneID 10211) | 3 | -0.715 | inactive
RAB3IP (GeneID 117177) | 1 | 0.822 | inactive
RAB3IP (GeneID 117177) | 2 | -0.173 | inactive
